The other results are listed elsewhere or left out.

Chains of the proteins cited; added tags and fusions are not shown.
UniProt Q0JBA9, entry or part of it: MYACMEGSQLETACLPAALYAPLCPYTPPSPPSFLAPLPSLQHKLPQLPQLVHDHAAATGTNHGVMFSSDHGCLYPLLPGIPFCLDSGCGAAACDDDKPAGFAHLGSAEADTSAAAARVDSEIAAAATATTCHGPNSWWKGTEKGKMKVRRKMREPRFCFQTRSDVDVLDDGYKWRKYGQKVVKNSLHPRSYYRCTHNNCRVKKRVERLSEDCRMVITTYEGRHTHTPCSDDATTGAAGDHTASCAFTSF

This passage reports binding signal results from PMC7819943, “Rice protein-binding microarrays: a tool to detect cis-acting elements near promoter regions in rice”.

In the experiment the target is OsWRKY34 (Oryza sativa, UniProt Q0JBA9 1-250). The experiment in a line: protein-binding microarray (RPBM); PBS, 2% BSA, 51.3 ng/ul salmon testes DNA, 50 uM zinc acetate, 200 nM TF, 25 C, 1 h; high values mean tight binding. To be noted: protein: recombinant; tags: N-terminal polyhistidine and DsRed monomer fusion (pET32a); label: CyDye5-dUTP incorporated in the synthesized complementary strand; 3' TTTTT single-stranded linker to array surface; dsDNA, one strand shown. In outline: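 Using Ni–NTA, transcription factors fused N-terminally to polyhistidine and DsRed were purified after expression in E. coli BL21-CodonPlus. These were incubated at 200 nM with a blocked, double-stranded custom Agilent array for 1 h at 25 °C in a buffer containing 50 µM zinc acetate, and the array was washed. The binding signal is per-feature fluorescence intensity (arbitrary units) on an Axon 4000B scanner.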
With “TTTCACCCATAAAGCGGAAGTGGATTTTTGTCGGGACATCCGGAGTCACCTAGTGCAG”, the binding signal was 8740 fluorescence intensity (a.u.).

In the case of “ACACCATCTGCACACCTGCACCTGCACCTGCACGGCCGTGCGGAGTCACCTAGTGCAG”, the binding signal was 9960 fluorescence intensity (a.u.).

“GCCGTCCATCGCCGCCTCGACCCCGCCGCCGTCCATCGCCCGGAGTCACCTAGTGCAG”: the binding signal is 13100 fluorescence intensity (a.u.).

For “TCTGAATCCTCTTATTTTCCACATGCTGCTTCTTGAGCCGCGGAGTCACCTAGTGCAG”, the binding signal was 10400 fluorescence intensity (a.u.).

Turning to “TGCACAGCTGCACTCCTGGAATAACCACCCTCGCACCGATCGGAGTCACCTAGTGCAG”, the binding signal is 8150 fluorescence intensity (a.u.).

For “TCTCGCGTGCCATAACTATTTTCTCATCCAATCCGCACGTCGGAGTCACCTAGTGCAG”, the binding signal was 8980 fluorescence intensity (a.u.).

With “CCCCACATCATAACTGTCACTTTTCCCTCAACGTGGGCCTCGGAGTCACCTAGTGCAG”, the binding signal was 8250 fluorescence intensity (a.u.).

On to “ATCCAGGGGCGGGCCCACTATAATTCGTGGGTATTCAAATCGGAGTCACCTAGTGCAG”, for which the binding signal is 9790 fluorescence intensity (a.u.).

Turning to “GGTTGTTCAAGGCGGCCGCGCTTCCACGCCCCACGCACCGCGGAGTCACCTAGTGCAG”, the binding signal was 10000 fluorescence intensity (a.u.).

Consider “TTCCTGTGGTCTAATCAAACGGTCATTCCTGTGTTTTTTTCGGAGTCACCTAGTGCAG”, for which the binding signal was 10000 fluorescence intensity (a.u.).

For “GGCATTTCACAGGCAACATTTAAATTTCCGCATAATCCGGCGGAGTCACCTAGTGCAG”, the binding signal is 8900 fluorescence intensity (a.u.).

For the sequence “TGGGCTTTGTGTTTGATATGGGGCCGATGAAGTTTTTTTTCGGAGTCACCTAGTGCAG”, the binding signal was 11000 fluorescence intensity (a.u.).

Turning to “GCTTTCGTAGTCGCTTTGCTCGATCGCTCCTCTCGATCCCCGGAGTCACCTAGTGCAG”, the binding signal was 9250 fluorescence intensity (a.u.).

On to “GATCATGTGAGCTTCTCATCAAGGGGTTTCTCTTCTATTCCGGAGTCACCTAGTGCAG”, for which the binding signal was 8880 fluorescence intensity (a.u.).

As to “CTTTTACTGCACAGAACTTGGTCGAATTGCAAGCCACTTTCGGAGTCACCTAGTGCAG”, the binding signal was 8140 fluorescence intensity (a.u.).

For “TACTATAGTTTATTTTCCAGCGTTGTCTTTAAATTGTTAACGGAGTCACCTAGTGCAG”, the binding signal is 8240 fluorescence intensity (a.u.).

Consider “AGATTTTAAACTTTTTGCTCTGTCATGCATGCATAAATATCGGAGTCACCTAGTGCAG”, for which the binding signal is 9500 fluorescence intensity (a.u.).

As to “CTTCAAGTCTATCTCTTTCATCCGATTTATGCATTTTCTCCGGAGTCACCTAGTGCAG”, the binding signal was 9000 fluorescence intensity (a.u.).

Turning to “TTTGCCTACATTTAATGTTTTATACATATGTCCAAACATTCGGAGTCACCTAGTGCAG”, the binding signal is 8200 fluorescence intensity (a.u.).

“AACATTGTTTTGCATCGTTCAGATATATCTCTGATCTTTTCGGAGTCACCTAGTGCAG”: the binding signal was 8840 fluorescence intensity (a.u.).

As to “AAATGCCAAATGACAACTTGCCAACTTTTTCTACTATTGTCGGAGTCACCTAGTGCAG”, the binding signal is 8860 fluorescence intensity (a.u.).

For the sequence “TGATGACTTTTTTGCATGTCCCTTATTTAATCTTAATTTTCGGAGTCACCTAGTGCAG”, the binding signal was 9280 fluorescence intensity (a.u.).

As to “GAGGTGGCTTTGGCGGCGGAGTGGGAGGCGGTGGTGGTGGCGGAGTCACCTAGTGCAG”, the binding signal was 10000 fluorescence intensity (a.u.).

As for “TTAGGTTGATGTGATGGCTAATTTATACAATAATATCTTACGGAGTCACCTAGTGCAG”, the binding signal is 9430 fluorescence intensity (a.u.).

For “TTCACATTTCTCACATACATCCACTACTTATTCAATCACACGGAGTCACCTAGTGCAG”, the binding signal is 8390 fluorescence intensity (a.u.).

With “TTGTTCCTCTTCCGCCGCCGGACTTGTTTCCTCTCCCGCGCGGAGTCACCTAGTGCAG”, the binding signal is 10300 fluorescence intensity (a.u.).

Turning to “TACTAGCTTCTAATTACATTTGCTCCTAACTTTTCTTCAACGGAGTCACCTAGTGCAG”, the binding signal was 9510 fluorescence intensity (a.u.).

In the case of “GTGTTGAAAAACCTTGTCCGATCCTACATGTATGCTTTACCGGAGTCACCTAGTGCAG”, the binding signal is 10300 fluorescence intensity (a.u.).

Take “CTTTTCATCTTCTTGACGACTTGGTTGTTTGATTCATTTACGGAGTCACCTAGTGCAG”: the binding signal was 8830 fluorescence intensity (a.u.).

On to “AACCCTCTTGACCCTTGTCGTCTCCGCACCGCAGCCGCCGCGGAGTCACCTAGTGCAG”, for which the binding signal was 9750 fluorescence intensity (a.u.).

“CCACGTCTCCGTCTGTTTGCGGCTCAAGGTTTCAGCGATGCGGAGTCACCTAGTGCAG”: the binding signal is 10800 fluorescence intensity (a.u.).

Turning to “CTCTCTATCTCTATCCATTCTTCTCGCATGCCACTGACCACGGAGTCACCTAGTGCAG”, the binding signal was 9770 fluorescence intensity (a.u.).

On to “ATGAAGACACAAATCCACTCCCTACTTGCTTTCACTGTCACGGAGTCACCTAGTGCAG”, for which the binding signal is 8400 fluorescence intensity (a.u.).

In the case of “GGCGCGGGAAGCGGGTGGGGCCATATGGCAGCGAGACAGCCGGAGTCACCTAGTGCAG”, the binding signal is 9310 fluorescence intensity (a.u.).

Regarding “TCTGCTGCTACTGCTCCTCTCCTTCCATGGTGGTCGCCCACGGAGTCACCTAGTGCAG”, the binding signal is 10100 fluorescence intensity (a.u.).

Consider “GCGTCTCTACTCCTCTCCCTGCATCTGGTATACGTATCTTCGGAGTCACCTAGTGCAG”, for which the binding signal is 10400 fluorescence intensity (a.u.).

“CCTCTGGCTACTTCAGCTGCTGCCTGCCAAGCAACACACTCGGAGTCACCTAGTGCAG”: the binding signal was 8280 fluorescence intensity (a.u.).

Take “CACCCTGCGTACGTACTACATGTTAGCCTTATCACACAATCGGAGTCACCTAGTGCAG”: the binding signal was 15900 fluorescence intensity (a.u.).

Consider “CACTCCACTCCAGTCCTTGTCCATTGCCAATTCACCCCTCCGGAGTCACCTAGTGCAG”, for which the binding signal was 12000 fluorescence intensity (a.u.).

Take “GCCTAGGTCTACAGTTCACTCGCTATCCACGCACAGCCCGCGGAGTCACCTAGTGCAG”: the binding signal is 8830 fluorescence intensity (a.u.).

Regarding “CCCGTCATTGACTACGGTTGACCAAAGTTGAAACGGGGACCGGAGTCACCTAGTGCAG”, the binding signal was 9440 fluorescence intensity (a.u.).

With “ATTATATTTTAGGTCGCATTTTGATTCTTTTCATGTAATCCGGAGTCACCTAGTGCAG”, the binding signal is 8660 fluorescence intensity (a.u.).
